Measurements reported in PubChem BioAssay AID1224828 (NIAID, 2016).
Aim: 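Knock-downs that increase or decrease LPS-induced p65 nuclear translocation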 (primary screen). Cells: mouse RAW264.7 G9 macrophage reporter cells (GFP-p65, Tnf promoter-mCherry). Reagents: siRNA pool against mouse genes, 100 nM. Timing: 2 days siRNA transfection, then 40 min LPS before fixation. Conditions: LPS (Salmonella minnesota R595) at 10 ng/ml. Read-out: 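Imaged p65 nuclear translocation ratio, normalised to the plate median, converted to robust z-scores and averaged across two replicates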. Scale: p65 translocation robust z-score: higher = more nuclear NF-kappaB p65 after LPS than the plate median; nuclear/cytoplasmic p65 ratio: higher = more nuclear NF-kappaB p65. Call rule: 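Active if robust z is above 3.3 (negative regulators) or below -1.56, the Tlr4 control median (positive regulators); activity score 50 or more; control wells not called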. Meaning of the calls: active = hit (p65 shift raised or lowered); inactive = no clear change.
The deposit covers about 17,000 reagents; this is an unselected part. In the full data, 762 (4.5%) were called active. 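Active calls include both raised and lowered p65 entry, mostly lowered; wells with fewer than 50 cells lack a z-score.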 Raw values are not corrected between plates. No sequences are given here.

For Rbp7, the entry reads p65 translocation robust z-score 0.81; nuclear/cytoplasmic p65 ratio, rep 1 = 1.56; nuclear/cytoplasmic p65 ratio, rep 2 = 1.28; low cell count flag enough cells to score; inactive.
Npsr1 scored p65 translocation robust z-score -0.31; nuclear/cytoplasmic p65 ratio, rep 1 = 1.39; nuclear/cytoplasmic p65 ratio, rep 2 = 1.41; low cell count flag enough cells to score; inactive.
After knock-down of Micu2, the screen gave nuclear/cytoplasmic p65 ratio, rep 1 = 1.64; nuclear/cytoplasmic p65 ratio, rep 2 = 1.53; low cell count flag fewer than 50 cells per well; well left out of scoring; inactive.
For Dmkn, the entry reads p65 translocation robust z-score 0.82; nuclear/cytoplasmic p65 ratio, rep 1 = 1.66; nuclear/cytoplasmic p65 ratio, rep 2 = 1.56; low cell count flag enough cells to score; inactive.
For Eif4e2 the deposit lists p65 translocation robust z-score -1.12; nuclear/cytoplasmic p65 ratio, rep 1 = 1.35; nuclear/cytoplasmic p65 ratio, rep 2 = 1.19; low cell count flag enough cells to score; inactive.
Against Mymk, the entry reads nuclear/cytoplasmic p65 ratio, rep 1 = 1.48; nuclear/cytoplasmic p65 ratio, rep 2 = 1.45; low cell count flag fewer than 50 cells per well; well left out of scoring; inactive.
After knock-down of Rab3c, the screen gave p65 translocation robust z-score 1.51; nuclear/cytoplasmic p65 ratio, rep 1 = 1.61; nuclear/cytoplasmic p65 ratio, rep 2 = 1.35; low cell count flag enough cells to score; inactive.
After knock-down of Calu, the record shows p65 translocation robust z-score -0.36; nuclear/cytoplasmic p65 ratio, rep 1 = 1.62; nuclear/cytoplasmic p65 ratio, rep 2 = 1.63; low cell count flag enough cells to score; inactive.
Ube2a showed nuclear/cytoplasmic p65 ratio, rep 1 = 1.36; nuclear/cytoplasmic p65 ratio, rep 2 = 0.998; low cell count flag fewer than 50 cells per well; well left out of scoring; inactive.
Or1l4 scored p65 translocation robust z-score 0.18; nuclear/cytoplasmic p65 ratio, rep 1 = 1.68; nuclear/cytoplasmic p65 ratio, rep 2 = 1.41; low cell count flag enough cells to score; inactive.
Gpld1 showed p65 translocation robust z-score -1.1; nuclear/cytoplasmic p65 ratio, rep 1 = 1.59; nuclear/cytoplasmic p65 ratio, rep 2 = 1.28; low cell count flag enough cells to score; inactive.
Knock-down of Serpinb11 gave: nuclear/cytoplasmic p65 ratio, rep 1 = 1.27; nuclear/cytoplasmic p65 ratio, rep 2 = 1.42; low cell count flag fewer than 50 cells per well; well left out of scoring; inactive.
Knock-down of 4933431E20Rik gave: p65 translocation robust z-score -0.64; nuclear/cytoplasmic p65 ratio, rep 1 = 1.31; nuclear/cytoplasmic p65 ratio, rep 2 = 1.35; low cell count flag enough cells to score; inactive.
Polr2k gave p65 translocation robust z-score -1.25; nuclear/cytoplasmic p65 ratio, rep 1 = 1.06; nuclear/cytoplasmic p65 ratio, rep 2 = 1.08; low cell count flag enough cells to score; inactive.
